Our source for the log2 fold change values is the supplement of paper PMC12819154, “High-throughput peptide-centric local stability assay extends protein–ligand identification to membrane proteins, tissues and bacteria” (Nature Structural & Molecular Biology, 2025).

Chains of the proteins cited; added tags and fusions are not shown. Lines headed by an entry give the natural chain unless they say otherwise; changes in a name come on top.
UniProt Q9BZJ0: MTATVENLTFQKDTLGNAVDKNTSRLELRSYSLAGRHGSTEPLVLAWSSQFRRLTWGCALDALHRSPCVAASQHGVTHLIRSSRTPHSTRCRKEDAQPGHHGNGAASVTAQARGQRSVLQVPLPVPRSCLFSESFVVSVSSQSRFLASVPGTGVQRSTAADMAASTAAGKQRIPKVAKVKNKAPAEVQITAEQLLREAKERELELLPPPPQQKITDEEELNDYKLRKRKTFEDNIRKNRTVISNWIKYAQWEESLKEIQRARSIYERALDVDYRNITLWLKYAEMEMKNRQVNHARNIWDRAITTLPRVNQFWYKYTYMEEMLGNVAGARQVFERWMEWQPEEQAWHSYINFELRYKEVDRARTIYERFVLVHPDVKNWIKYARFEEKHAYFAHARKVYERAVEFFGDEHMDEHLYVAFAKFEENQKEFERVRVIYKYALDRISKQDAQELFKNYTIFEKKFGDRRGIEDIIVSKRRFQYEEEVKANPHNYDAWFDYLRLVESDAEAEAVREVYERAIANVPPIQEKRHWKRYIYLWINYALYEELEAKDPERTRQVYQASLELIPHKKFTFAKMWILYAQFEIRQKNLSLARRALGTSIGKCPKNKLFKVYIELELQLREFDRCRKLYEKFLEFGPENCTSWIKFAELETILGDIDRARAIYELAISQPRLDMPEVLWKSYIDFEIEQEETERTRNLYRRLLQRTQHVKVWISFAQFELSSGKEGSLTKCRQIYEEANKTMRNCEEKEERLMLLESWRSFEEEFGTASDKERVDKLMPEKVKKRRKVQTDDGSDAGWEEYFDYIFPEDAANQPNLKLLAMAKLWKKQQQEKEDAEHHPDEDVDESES
UniProt Q9H0A0: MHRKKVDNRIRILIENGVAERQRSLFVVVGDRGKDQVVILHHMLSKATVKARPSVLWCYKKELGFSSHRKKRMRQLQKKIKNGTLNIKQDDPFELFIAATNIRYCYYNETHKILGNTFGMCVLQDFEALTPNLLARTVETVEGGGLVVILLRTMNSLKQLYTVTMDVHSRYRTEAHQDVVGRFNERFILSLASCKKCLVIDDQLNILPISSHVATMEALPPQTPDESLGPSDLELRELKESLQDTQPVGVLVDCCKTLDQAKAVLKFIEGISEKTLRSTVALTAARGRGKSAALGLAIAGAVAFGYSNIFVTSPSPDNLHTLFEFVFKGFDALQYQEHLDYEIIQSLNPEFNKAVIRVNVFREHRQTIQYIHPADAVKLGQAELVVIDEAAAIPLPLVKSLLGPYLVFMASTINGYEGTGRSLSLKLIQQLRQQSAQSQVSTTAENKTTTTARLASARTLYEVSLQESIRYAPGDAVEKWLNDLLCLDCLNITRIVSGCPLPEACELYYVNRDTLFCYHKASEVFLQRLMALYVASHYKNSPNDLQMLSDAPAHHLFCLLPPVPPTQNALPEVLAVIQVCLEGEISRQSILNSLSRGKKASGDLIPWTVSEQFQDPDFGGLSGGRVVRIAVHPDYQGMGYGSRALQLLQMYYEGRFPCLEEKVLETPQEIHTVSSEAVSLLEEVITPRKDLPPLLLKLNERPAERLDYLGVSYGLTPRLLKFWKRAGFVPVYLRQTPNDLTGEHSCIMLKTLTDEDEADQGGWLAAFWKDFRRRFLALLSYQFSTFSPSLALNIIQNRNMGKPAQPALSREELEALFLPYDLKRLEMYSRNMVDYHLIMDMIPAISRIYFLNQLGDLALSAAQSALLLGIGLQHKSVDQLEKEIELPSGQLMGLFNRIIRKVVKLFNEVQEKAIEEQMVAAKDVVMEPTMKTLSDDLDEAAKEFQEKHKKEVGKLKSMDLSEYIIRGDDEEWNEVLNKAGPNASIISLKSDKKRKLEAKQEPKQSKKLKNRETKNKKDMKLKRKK
UniProt Q9BYE7: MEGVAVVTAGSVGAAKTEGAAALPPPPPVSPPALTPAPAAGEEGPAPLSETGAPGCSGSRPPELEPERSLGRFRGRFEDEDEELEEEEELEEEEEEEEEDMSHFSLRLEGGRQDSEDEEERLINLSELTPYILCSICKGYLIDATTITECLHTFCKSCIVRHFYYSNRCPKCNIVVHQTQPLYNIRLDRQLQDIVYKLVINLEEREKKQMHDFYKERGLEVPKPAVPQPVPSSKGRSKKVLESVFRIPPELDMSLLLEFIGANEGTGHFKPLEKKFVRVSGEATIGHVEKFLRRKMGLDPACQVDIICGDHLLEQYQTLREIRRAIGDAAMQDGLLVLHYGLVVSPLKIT
UniProt Q9BWS9: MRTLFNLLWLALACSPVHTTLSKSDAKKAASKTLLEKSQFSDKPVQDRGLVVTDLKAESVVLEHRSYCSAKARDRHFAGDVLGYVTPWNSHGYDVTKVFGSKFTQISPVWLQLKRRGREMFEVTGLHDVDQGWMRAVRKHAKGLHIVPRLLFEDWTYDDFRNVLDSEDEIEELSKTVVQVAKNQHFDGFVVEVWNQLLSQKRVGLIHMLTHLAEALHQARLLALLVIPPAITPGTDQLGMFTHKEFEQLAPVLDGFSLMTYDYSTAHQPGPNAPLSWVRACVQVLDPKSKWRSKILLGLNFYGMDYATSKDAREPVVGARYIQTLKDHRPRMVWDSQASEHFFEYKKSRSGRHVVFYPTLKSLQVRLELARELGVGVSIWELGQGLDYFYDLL
UniProt Q9BXS5: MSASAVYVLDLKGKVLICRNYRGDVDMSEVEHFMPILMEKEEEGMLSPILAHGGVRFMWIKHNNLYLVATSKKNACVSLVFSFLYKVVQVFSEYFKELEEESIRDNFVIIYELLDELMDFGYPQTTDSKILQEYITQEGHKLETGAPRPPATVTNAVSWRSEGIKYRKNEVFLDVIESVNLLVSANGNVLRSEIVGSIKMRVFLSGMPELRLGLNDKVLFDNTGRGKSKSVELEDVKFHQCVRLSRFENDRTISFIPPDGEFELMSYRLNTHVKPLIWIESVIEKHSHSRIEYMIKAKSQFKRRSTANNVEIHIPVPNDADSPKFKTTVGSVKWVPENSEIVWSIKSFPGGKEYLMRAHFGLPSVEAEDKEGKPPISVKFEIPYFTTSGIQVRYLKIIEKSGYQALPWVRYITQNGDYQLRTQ
UniProt Q9H089: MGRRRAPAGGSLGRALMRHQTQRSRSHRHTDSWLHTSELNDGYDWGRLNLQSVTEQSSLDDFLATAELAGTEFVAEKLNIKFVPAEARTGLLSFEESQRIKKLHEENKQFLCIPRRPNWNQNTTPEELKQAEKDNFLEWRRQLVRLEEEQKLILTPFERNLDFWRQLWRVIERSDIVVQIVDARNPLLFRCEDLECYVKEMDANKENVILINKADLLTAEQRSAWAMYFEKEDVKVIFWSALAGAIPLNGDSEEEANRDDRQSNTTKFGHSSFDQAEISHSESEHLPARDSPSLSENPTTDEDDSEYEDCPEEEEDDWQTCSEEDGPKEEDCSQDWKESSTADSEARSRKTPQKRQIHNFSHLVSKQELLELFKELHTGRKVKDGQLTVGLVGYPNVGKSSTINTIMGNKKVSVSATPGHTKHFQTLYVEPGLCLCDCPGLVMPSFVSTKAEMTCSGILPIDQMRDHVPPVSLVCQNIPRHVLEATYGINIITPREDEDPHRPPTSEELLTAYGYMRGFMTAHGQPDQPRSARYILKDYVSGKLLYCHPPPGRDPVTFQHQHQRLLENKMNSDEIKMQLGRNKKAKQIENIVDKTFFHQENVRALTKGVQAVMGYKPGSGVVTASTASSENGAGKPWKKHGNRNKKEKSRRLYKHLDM
UniProt Q9BWG4: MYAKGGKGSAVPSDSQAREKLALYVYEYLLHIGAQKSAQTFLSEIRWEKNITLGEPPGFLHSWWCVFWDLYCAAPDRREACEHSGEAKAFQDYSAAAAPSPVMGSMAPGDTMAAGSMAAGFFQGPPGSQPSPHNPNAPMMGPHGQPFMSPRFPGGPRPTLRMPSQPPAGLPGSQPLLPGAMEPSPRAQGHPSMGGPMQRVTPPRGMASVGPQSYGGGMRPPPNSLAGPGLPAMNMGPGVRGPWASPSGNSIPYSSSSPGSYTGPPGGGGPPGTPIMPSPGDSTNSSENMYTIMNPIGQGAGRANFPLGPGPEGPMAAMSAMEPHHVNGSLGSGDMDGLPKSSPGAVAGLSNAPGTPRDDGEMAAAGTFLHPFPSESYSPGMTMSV
UniProt Q9H0R8, whole entry, looked up: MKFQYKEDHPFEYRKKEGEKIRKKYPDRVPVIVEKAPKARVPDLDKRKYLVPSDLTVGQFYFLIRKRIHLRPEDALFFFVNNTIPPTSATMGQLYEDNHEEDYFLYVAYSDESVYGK
UniProt Q9BZQ8: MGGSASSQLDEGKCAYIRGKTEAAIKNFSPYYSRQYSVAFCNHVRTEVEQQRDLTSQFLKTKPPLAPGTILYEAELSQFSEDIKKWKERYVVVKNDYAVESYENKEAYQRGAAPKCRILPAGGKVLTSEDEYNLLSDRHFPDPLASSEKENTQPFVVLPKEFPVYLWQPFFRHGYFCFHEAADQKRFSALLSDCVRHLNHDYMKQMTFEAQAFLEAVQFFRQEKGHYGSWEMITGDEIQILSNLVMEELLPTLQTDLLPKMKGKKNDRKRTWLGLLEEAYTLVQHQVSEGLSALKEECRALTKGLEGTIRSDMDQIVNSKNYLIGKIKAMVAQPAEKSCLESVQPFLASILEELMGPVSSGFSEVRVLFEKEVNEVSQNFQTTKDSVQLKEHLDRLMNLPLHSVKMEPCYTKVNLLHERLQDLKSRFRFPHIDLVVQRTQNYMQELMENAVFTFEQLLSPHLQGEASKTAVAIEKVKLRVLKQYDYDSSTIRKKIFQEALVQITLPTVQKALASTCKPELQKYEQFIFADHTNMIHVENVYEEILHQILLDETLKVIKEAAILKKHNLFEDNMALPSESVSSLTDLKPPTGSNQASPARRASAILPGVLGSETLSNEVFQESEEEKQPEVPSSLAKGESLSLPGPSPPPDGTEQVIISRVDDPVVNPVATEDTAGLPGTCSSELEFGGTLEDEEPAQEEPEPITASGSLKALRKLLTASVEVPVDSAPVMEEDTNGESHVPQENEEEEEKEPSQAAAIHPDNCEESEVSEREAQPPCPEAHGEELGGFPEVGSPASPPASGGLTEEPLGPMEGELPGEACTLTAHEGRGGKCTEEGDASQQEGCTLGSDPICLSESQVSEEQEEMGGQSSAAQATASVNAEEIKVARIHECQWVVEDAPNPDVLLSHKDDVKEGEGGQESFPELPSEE
UniProt Q9GZQ3, whole entry: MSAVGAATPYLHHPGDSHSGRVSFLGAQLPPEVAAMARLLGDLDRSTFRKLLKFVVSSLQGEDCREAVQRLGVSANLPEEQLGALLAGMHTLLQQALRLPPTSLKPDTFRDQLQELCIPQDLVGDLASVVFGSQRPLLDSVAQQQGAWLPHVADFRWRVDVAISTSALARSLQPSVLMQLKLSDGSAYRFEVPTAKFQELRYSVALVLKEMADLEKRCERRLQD
UniProt Q9H0E3: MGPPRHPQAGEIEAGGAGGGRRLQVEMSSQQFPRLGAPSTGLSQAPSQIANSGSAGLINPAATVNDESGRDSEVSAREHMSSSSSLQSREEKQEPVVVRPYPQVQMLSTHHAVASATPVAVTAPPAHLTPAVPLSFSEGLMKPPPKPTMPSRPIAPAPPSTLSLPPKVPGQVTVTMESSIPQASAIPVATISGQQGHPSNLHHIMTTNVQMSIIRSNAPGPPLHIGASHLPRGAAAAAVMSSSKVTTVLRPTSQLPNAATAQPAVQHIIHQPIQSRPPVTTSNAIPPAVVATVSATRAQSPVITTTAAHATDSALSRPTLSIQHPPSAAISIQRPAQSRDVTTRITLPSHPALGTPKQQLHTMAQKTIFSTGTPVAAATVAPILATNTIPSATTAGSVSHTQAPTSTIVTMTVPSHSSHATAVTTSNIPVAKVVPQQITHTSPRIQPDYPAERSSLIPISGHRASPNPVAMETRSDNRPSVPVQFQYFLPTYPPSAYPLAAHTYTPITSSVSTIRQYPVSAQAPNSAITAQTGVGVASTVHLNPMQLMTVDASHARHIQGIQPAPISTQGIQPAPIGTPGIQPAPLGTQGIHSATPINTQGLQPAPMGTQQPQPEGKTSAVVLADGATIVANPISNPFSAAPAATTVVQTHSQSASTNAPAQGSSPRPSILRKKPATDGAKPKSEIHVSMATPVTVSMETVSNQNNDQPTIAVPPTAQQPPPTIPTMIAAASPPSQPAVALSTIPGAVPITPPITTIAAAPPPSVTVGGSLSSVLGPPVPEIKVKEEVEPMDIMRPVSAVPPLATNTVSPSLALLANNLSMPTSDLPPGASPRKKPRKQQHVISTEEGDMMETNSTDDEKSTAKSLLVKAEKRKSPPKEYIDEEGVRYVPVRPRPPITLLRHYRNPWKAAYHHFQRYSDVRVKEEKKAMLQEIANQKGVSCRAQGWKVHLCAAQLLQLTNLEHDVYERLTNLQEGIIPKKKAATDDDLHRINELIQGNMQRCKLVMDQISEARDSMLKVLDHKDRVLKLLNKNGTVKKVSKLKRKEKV
UniProt Q9H299: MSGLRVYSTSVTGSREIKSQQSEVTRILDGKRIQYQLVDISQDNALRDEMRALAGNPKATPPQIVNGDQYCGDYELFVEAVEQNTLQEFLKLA

The other results are listed elsewhere or left out. Most values lie at the level of the controls, where differences are scatter.

Compound in the assay: CN[C@@H]1C[C@H]2O[C@@](C)([C@@H]1OC)n1c3ccccc3c3c4c(c5c6ccccc6n2c5c31)C(=O)NC4 [staurosporine]
Description: log2 fold change of tryptic peptide abundance, ligand vs vehicle (limited proteolysis) (log2 ratio); higher = more trypsin-susceptible (destabilized). As to conditions: ligand concentration: 20 uM; sample: K562 cleared lysate; digestion: 4 min, 22 C (HT-PELSA RT4min, Orbitrap Astral).
Turning to “ACTR6 (peptide sequence: GFCKPREEMVLSGK, peptide start residue: 247) (UniProt Q9GZN1)”, the log2 fold change is -0.724.
For “MRPL46 (peptide sequence: FLGNAPCGHYTFKFPQAMR, peptide start residue: 204) (UniProt Q9H2W6)”, the log2 fold change is -0.256.
As for “HEMGN (peptide sequence: ETSQWLFGEQKK, peptide start residue: 51) (UniProt Q9BXL5)”, the log2 fold change was -0.197.
Take “NSD3 (peptide sequence: FQVGDLVWSK, peptide start residue: 268) (UniProt Q9BZ95)”: the log2 fold change was determined as 0.3.
As to “VPS16 (peptide sequence: ASYAAEER, peptide start residue: 636) (UniProt Q9H269)”, the log2 fold change is -0.161.
Turning to “CRNKL1 (peptide sequence: VNQFWYK, peptide start residue: 309) (UniProt Q9BZJ0)”, the log2 fold change was 0.41.
The value for “UNK (peptide sequence: SQEQPLLQPK, peptide start residue: 447) (UniProt Q9C0B0)” was -0.12; that for “UniProt Q9BXM7 (peptide sequence: APGAPAFPLAIK, peptide start residue: 208)” was 0.208.
Regarding “UniProt Q9GZN2 (peptide sequence: DGKDPNQFTISR, peptide start residue: 230)”, the log2 fold change is -0.181.
As for “NAT10 (peptide sequence: ARPSVLWCYK, peptide start residue: 51) (UniProt Q9H0A0)”, the log2 fold change was 0.787.
On to “PCGF6 (peptide sequence: VSGEATIGHVEK, peptide start residue: 279) (UniProt Q9BYE7)”, for which the log2 fold change is 0.924.
The value for “CHID1 (peptide sequence: AESVVLEHR, peptide start residue: 57) (UniProt Q9BWS9)” was 0.661; that for “RPAP1 (peptide sequence: LLAQLDPSLVAFLR, peptide start residue: 250) (UniProt Q9BWH6)” was -0.192.
Turning to “FAM49A (peptide sequence: AWNAVCPLVVR, peptide start residue: 78) (UniProt Q9H0Q0)”, the log2 fold change is 0.141.
Regarding “AP1M1 (peptide sequence: ILQEYITQEGHK, peptide start residue: 130) (UniProt Q9BXS5)”, the log2 fold change was -0.598.
As for “TSPYL1 (peptide sequence: AFQQLEHK, peptide start residue: 249) (UniProt Q9H0U9)”, the figure is 0.346; as for “UniProt Q9H3Y8 (peptide sequence: ADPGHWWASFFFGK, peptide start residue: 49)”, 0.0126.
The value for “C11orf54 (peptide sequence: HYGNKPIGMGGTFIIQK, peptide start residue: 195) (UniProt Q9H0W9)” was 0.317; that for “LSG1 (peptide sequence: EMDANKENVILINK, peptide start residue: 200) (UniProt Q9H089)” was 0.55; that for “AMBRA1 (peptide sequence: FLLPEYLPYAGIFHER, peptide start residue: 809) (UniProt Q9C0C7)” was -0.215.
As for “WDR12 (peptide sequence: YSPTTSHVGA, peptide start residue: 414) (UniProt Q9GZL7)”, the figure is 0.118; as for “SSBP4 (peptide sequence: SAQTFLSEIR, peptide start residue: 36) (UniProt Q9BWG4)”, -0.214.
On to “UniProt Q9C0F1 (peptide sequence: DQFNYKPILTK, peptide start residue: 83)”, for which the log2 fold change was -0.385.
The value for “UniProt Q9H0R8 (peptide sequence: KYPDRVPVIVEK, peptide start residue: 24)” was 0.213; that for “UniProt Q9BZQ8 (peptide sequence: AMVAQPAEK, peptide start residue: 329)” was 0.306; that for “COMMD5 (peptide sequence: FVVSSLQGEDCREAVQR, peptide start residue: 54) (UniProt Q9GZQ3)” was -0.305.
As to “SAP130 (peptide sequence: IQPDYPAER, peptide start residue: 445) (UniProt Q9H0E3)”, the log2 fold change is -0.173.
With “SH3BGRL3 (peptide sequence: RIQYQLVDISQDNALRDEMR, peptide start residue: 32) (UniProt Q9H299)”, the log2 fold change is -0.115.
